PubChem BioAssay AID1671195, Yale University, 2021
Test: 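Genes whose knockdown alters LDL uptake in liver cancer cells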 (primary screen). Cell system: human Huh7 hepatoma cells. Reagents: siRNA pool against human genes, 18 nM. Time to read-out: about 2 to 2.5 days of knockdown, then 8 h LDL uptake. Challenge: DiI-labelled LDL at 30 µg/ml for 8 h, in lipoprotein-deficient serum medium. Measurement: 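Per-cell DiI-LDL intensity by automated imaging; well means scaled to the plate median and given as a robust z-score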. Direction: robust z-score: higher = more LDL uptake after knockdown. Rule for the call: 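Active when two or more replicates show a robust z-score above 2 or below -2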.
This is a random part of about 22,000 deposited reagents. About 1,510 of all reagents (6.9%) were called active. 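Active includes knockdowns raising or lowering LDL uptake; positive z-scores mean more uptake, negative mean less.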 Unmarked entries are inactive. Reagents against one gene are numbered here.

target | reagent | robust z-score, replicate 1 | robust z-score, replicate 2 | robust z-score, replicate 3
SCD (stearoyl-CoA desaturase) | 1 | -0.598 | -1.14 | -0.784
LOC442100 (retired record) | 1 | -0.221 | -0.535 | -0.264
RHOA (ras homolog family member A) | 1 | -0.636 | 1.44 | 0.332
SNUPN (snurportin 1) | 1 | 7.41 (active) | 6.81 | 8.33
SLC15A4 | 1 | 0.486 | 0.671 | 0.699
GPLD1 (glycosylphosphatidylinositol specific phospholipase D1) | 1 | -0.00891 | 0.666 | 0.358
FGD3 (FYVE, RhoGEF and PH domain containing 3) | 1 | 0.768 | 2.21 | 1.24
EPB41L4A (erythrocyte membrane protein band 4.1 like 4A) | 1 | -0.167 | -0.566 | -0.585
TMEM132E-DT (TMEM132E divergent transcript) | 1 | 1.19 | 1.34 | 0.909
ZGRF1 (zinc finger GRF-type containing 1) | 1 | 0.123 | -1.99 | -0.615
ZGRF1 (zinc finger GRF-type containing 1) | 2 | -0.628 | -1.19 | -0.862
TXNDC11 (thioredoxin domain containing 11) | 1 | 0.567 | 0.391 | 0.293
RBM25 (RNA binding motif protein 25) | 1 | -0.777 | -1.3 | -1.76
LIPC (lipase C, hepatic type) | 1 | 0.182 | 0.418 | 0.434
FLG (filaggrin) | 1 | -2.02 (active) | -1.98 | -1.98
IFNAR2 (interferon alpha and beta receptor subunit 2) | 1 | -0.393 | -0.976 | -0.0403
CEP170B (centrosomal protein 170B) | 1 | 0.335 | -0.158 | -0.132
WDR38 (WD repeat domain 38) | 1 | -0.614 | -0.0778 | -0.586
TOMM34 (translocase of outer mitochondrial membrane 34) | 1 | 0.483 | 0.463 | 1.06
NCOR1 (nuclear receptor corepressor 1) | 1 | -0.0294 | 0.138 | 0.706
LOC285711 (retired record) | 1 | -0.925 | -0.714 | -0.659
PTPRO (protein tyrosine phosphatase receptor type O) | 1 | -0.134 | 0.000223 | 0.0147
FAM153A (family with sequence similarity 153 member A) | 1 | 1.37 | 0.544 | 1.41
KRT5 (keratin 5) | 1 | -0.96 | -1.21 | -1.19
SHLD1 (shieldin complex subunit 1) | 1 | -0.919 | -1.27 | -0.131
EXOC1 (exocyst complex component 1) | 1 | 1.16 | -0.148 | 0.91
TRIM67 (tripartite motif containing 67) | 1 | 0.226 | 0.598 | 1.14
LOC199897 (retired record) | 1 | -0.103 | 0.164 | 0.0203
HCK (HCK proto-oncogene, Src family tyrosine kinase) | 1 | 0.47 | 0.204 | 0.0462
LIX1 (limb and CNS expressed 1) | 1 | -1.34 | -1.46 | -1.78
GCDH (glutaryl-CoA dehydrogenase) | 1 | 0.704 | 0.202 | 0.933
DMTF1 (cyclin D binding myb like transcription factor 1) | 1 | 0.351 | -0.251 | 0.297
ZNF532 (zinc finger protein 532) | 1 | 0.384 | 0.35 | 0.361
TNIP1 (TNFAIP3 interacting protein 1) | 1 | -0.493 | 0.15 | 0.826
CRISP1 (cysteine rich secretory protein 1) | 1 | 0.771 | 1.31 | 0.147
QRICH2 (glutamine rich 2) | 1 | -0.565 | 0.4 | 0.452
AVEN (apoptosis and caspase activation inhibitor) | 1 | -0.391 | -0.525 | -0.498
LINC01501 (long independently transcribed non-coding RNA 1501) | 1 | -0.44 | -0.68 | -0.554

Just “robust z-score, replicate 1” (5 entries from above):
LOC285711 (retired record) = -0.925
PTPRO (protein tyrosine phosphatase receptor type O) = -0.134
FAM153A (family with sequence similarity 153 member A) = 1.37
KRT5 (keratin 5) = -0.96
SHLD1 (shieldin complex subunit 1) = -0.919

Further reagents follow.
target | reagent | robust z-score, replicate 1 | robust z-score, replicate 2 | robust z-score, replicate 3
KNG1 (kininogen 1) | 1 | 0.363 | 0.0629 | 0.331
RBM23 (RNA binding motif protein 23) | 1 | -0.537 | -0.932 | -0.211
VRK3 (VRK serine/threonine kinase 3) | 1 | -0.364 | -0.408 | 0.616
SH2D2A (SH2 domain containing 2A) | 1 | 1.22 | -1.9 | -0.84
SPANXN5 (SPANX family member N5) | 1 | 1.24 | 0.649 | 0.535
CX3CL1 (C-X3-C motif chemokine ligand 1) | 1 | 1.36 | -0.0246 | -0.0761
LRRTM2 (leucine rich repeat transmembrane neuronal 2) | 1 | 0.369 | 1.38 | 2.73
ALAD (aminolevulinate dehydratase) | 1 | -0.294 | -0.42 | -0.322
KRT14 (keratin 14) | 1 | 0.861 | 0.736 | 1.52
PLA2R1 (phospholipase A2 receptor 1) | 1 | 1.53 | 1.5 | 1.22
TLN2-AS2 (TLN2 antisense RNA 2) | 1 | -0.244 | 0.342 | -0.406
SAYSD1 (SAYSVFN motif domain containing 1) | 1 | -0.378 | 0.081 | -0.0061
C20orf66 | 1 | -1.05 | -1.34 | -1.19
CELSR3 (cadherin EGF LAG seven-pass G-type receptor 3) | 1 | 0.14 | -0.0961 | 0.409
LOC401905 (retired record) | 1 | -0.676 | -1.17 | -1.07
ACR (acrosin) | 1 | 0.147 | -0.333 | -0.779
USO1 (USO1 vesicle transport factor) | 1 | -0.8 | 1.15 | -0.071
FZD2 (frizzled class receptor 2) | 1 | -0.00496 | 0.404 | 0.896
TRPV3 | 1 | -1.26 | -1.48 | -1.52
SHISA3 (shisa family member 3) | 1 | 0.67 | -0.313 | 0.41
WNT9A (Wnt family member 9A) | 1 | 0.607 | 0.139 | -0.318
RBBP9 (RB binding protein 9, serine hydrolase) | 1 | 1.3 | 0.599 | 2.55
GPCPD1 (glycerophosphocholine phosphodiesterase 1) | 1 | -2.25 (active) | -0.00791 | -2.25
NUP58 (nucleoporin 58) | 1 | 0.215 | 0.781 | 0.474
KCNV2 | 1 | -0.632 | -0.714 | -0.554
TACC2 (transforming acidic coiled-coil containing protein 2) | 1 | -0.0372 | -0.609 | -0.968
PHEX (phosphate regulating endopeptidase X-linked) | 1 | -0.115 | -0.335 | -0.0854
OCLN (occludin) | 1 | -0.00124 | -0.0384 | 0.113
LOC441708 (retired record) | 1 | -1.98 | -1.88 | -1.59
ARFIP2 (ARF interacting protein 2) | 1 | -1.19 | -0.635 | 0.559
